# Experimental data published in the supplement of paper PMC12823440, “Inhibitors supercharge kinase turnover through native proteolytic circuits” (Nature, 2025).
# Protein sequences, listed by entry. Tags and fused reporters are not part of them. Lines headed by an entry give the natural chain unless they say otherwise; changes in a name come on top.
# UniProt P50613: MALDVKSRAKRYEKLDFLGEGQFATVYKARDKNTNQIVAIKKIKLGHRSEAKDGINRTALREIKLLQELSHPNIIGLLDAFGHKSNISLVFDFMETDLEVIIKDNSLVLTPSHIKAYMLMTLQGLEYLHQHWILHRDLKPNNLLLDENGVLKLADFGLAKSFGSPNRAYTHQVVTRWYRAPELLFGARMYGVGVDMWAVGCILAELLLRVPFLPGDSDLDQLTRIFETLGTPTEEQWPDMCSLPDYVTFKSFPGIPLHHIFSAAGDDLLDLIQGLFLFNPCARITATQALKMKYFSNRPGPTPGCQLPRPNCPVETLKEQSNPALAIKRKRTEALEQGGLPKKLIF
# UniProt P50750, whole entry: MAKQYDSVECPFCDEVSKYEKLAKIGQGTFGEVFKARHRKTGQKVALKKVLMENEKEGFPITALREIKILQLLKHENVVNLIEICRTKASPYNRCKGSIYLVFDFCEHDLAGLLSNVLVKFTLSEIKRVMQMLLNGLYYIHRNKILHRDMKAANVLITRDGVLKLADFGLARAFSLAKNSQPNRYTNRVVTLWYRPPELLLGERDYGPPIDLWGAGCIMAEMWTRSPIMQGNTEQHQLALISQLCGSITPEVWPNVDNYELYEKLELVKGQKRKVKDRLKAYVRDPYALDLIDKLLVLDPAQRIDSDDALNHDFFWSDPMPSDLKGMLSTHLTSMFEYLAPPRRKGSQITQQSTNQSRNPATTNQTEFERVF
# UniProt O96017, whole entry: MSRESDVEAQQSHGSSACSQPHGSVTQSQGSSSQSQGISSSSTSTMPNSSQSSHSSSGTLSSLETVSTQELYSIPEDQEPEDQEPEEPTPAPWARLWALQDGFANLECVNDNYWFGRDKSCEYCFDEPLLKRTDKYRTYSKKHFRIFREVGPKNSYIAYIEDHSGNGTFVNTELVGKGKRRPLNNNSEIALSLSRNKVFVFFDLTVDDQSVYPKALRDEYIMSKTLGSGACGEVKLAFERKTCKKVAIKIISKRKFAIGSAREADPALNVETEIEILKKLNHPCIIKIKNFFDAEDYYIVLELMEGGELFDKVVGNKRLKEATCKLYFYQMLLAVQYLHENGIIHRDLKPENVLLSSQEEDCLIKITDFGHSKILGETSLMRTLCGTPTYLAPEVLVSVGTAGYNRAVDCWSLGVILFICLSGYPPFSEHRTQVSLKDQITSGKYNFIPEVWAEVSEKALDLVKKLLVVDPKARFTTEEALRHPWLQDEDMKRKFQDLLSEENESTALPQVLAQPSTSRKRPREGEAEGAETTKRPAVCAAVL
# UniProt P07333, whole entry: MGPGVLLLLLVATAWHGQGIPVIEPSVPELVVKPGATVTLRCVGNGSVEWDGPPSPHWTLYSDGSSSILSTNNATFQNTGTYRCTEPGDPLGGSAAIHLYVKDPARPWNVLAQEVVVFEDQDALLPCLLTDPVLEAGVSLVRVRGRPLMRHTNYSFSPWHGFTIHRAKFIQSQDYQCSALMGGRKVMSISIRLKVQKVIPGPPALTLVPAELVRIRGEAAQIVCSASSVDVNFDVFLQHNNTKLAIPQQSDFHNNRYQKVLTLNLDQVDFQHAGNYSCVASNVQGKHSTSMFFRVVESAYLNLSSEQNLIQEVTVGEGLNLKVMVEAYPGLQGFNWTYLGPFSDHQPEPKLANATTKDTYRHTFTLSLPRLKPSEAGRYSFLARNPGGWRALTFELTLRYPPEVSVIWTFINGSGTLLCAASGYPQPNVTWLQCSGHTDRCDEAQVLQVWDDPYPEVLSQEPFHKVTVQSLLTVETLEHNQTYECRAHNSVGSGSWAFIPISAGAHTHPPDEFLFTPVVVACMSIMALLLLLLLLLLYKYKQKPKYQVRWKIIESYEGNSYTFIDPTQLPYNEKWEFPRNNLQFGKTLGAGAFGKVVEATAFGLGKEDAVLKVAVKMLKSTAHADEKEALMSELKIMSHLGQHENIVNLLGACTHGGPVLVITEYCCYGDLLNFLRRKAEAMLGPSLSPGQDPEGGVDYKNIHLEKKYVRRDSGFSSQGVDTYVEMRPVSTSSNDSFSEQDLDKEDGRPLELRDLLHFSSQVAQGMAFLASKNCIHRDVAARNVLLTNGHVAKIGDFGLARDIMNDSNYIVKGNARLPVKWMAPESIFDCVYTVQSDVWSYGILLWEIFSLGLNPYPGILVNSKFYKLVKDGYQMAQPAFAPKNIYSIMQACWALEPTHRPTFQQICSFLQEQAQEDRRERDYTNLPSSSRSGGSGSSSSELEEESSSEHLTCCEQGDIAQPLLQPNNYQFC
# UniProt P41240: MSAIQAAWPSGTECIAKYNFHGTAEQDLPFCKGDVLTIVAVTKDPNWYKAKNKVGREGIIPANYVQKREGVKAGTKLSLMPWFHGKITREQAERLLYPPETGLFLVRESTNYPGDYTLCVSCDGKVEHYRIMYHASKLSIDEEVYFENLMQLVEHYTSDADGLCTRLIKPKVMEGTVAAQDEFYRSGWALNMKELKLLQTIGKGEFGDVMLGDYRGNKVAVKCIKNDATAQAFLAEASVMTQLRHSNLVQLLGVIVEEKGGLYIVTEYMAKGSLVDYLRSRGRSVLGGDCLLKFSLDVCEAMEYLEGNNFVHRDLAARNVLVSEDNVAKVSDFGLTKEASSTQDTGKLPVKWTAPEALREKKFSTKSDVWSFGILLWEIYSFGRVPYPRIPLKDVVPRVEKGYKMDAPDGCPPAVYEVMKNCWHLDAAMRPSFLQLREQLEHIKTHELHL
# UniProt P48730: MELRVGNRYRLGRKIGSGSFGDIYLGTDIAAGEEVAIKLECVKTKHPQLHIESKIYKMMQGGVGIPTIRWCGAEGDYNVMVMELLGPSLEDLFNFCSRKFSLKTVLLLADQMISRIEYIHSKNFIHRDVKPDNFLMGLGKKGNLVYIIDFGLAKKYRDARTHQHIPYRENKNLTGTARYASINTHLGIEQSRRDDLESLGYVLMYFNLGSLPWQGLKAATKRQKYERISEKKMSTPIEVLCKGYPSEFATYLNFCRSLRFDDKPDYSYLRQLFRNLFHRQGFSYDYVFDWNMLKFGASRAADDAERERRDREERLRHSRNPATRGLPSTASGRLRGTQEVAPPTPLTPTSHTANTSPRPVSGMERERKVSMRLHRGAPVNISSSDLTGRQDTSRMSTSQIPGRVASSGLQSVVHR
# UniProt Q08345: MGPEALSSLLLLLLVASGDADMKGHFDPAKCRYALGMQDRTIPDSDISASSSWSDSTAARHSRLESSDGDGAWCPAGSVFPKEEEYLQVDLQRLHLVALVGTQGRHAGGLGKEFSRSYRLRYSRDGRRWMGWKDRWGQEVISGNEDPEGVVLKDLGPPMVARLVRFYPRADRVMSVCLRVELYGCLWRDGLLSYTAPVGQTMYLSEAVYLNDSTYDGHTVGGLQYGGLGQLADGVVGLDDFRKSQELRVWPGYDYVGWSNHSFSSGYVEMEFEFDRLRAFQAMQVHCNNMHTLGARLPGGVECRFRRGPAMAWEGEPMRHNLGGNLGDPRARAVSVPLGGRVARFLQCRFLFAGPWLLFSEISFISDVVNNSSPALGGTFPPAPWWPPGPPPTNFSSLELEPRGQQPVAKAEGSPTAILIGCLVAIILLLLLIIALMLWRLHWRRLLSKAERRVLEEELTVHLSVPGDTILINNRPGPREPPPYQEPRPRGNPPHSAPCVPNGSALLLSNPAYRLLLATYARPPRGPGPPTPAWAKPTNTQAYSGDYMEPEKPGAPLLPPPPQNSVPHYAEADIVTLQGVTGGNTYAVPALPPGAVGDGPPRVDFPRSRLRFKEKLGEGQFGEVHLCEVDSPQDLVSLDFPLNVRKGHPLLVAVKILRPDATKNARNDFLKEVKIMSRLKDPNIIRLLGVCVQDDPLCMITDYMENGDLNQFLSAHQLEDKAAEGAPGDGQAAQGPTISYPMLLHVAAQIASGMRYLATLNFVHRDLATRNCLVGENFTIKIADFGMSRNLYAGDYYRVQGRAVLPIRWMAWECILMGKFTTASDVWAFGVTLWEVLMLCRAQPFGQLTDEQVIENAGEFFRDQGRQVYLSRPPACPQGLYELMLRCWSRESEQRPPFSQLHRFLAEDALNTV
# UniProt Q9Y463, whole entry, looked up: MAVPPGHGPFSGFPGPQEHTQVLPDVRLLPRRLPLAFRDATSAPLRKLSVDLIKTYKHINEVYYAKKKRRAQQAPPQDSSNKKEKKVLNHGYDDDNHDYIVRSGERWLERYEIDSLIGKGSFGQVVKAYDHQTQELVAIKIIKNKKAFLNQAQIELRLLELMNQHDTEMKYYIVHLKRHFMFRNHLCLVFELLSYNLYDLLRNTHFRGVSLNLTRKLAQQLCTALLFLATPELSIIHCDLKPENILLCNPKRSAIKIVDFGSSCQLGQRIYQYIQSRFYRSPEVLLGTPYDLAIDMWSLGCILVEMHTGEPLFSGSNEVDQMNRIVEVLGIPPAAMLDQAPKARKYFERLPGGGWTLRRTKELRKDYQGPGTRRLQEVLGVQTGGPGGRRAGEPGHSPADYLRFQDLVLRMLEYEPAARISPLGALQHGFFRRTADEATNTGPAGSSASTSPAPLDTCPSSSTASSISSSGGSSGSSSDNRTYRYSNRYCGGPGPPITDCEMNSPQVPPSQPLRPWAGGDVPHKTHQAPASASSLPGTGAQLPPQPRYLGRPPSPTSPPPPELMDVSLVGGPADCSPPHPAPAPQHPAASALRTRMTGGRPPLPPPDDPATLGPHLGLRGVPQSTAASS
# UniProt Q92630: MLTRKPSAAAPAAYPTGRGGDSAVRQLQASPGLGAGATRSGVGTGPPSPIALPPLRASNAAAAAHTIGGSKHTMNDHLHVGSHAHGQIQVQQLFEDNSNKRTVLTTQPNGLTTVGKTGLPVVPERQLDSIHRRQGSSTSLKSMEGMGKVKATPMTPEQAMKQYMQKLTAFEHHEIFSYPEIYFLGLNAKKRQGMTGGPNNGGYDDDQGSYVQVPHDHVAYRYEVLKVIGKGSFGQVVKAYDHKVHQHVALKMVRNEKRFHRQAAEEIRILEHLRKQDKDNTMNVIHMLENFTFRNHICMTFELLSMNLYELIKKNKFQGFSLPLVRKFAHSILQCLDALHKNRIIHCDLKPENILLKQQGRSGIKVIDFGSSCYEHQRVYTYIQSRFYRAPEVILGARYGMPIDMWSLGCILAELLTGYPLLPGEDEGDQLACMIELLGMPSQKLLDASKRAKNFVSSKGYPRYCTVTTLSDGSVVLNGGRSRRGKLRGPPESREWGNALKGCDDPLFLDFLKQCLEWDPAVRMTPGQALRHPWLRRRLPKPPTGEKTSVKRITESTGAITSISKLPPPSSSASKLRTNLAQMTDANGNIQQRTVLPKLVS
# UniProt P48729: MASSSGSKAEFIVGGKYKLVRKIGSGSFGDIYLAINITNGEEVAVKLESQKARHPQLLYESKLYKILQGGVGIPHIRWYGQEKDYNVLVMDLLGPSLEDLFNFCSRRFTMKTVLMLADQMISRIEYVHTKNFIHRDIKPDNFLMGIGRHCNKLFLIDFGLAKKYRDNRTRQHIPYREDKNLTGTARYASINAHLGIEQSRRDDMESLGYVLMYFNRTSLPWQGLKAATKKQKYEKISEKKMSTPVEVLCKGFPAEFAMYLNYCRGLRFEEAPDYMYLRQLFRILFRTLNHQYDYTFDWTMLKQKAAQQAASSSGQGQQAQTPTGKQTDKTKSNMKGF
# Some of the results follow. Hit calls seldom repeat between salt and free forms of one compound.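 In K562 cells expressing nanoluciferase-fused kinases, luminescence was recorded at 4 h intervals between 2 and 18 h, normalized as percent of control with DMSO at 100% and a positive control at 0%. A significant (2 sigma) signal drop marks a time point as decreased. The authors' rule for a hit is not shown and takes in more than the number of time points.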
# Legend:
# Test in all cases: kinase-Nluc reporter destabilization hit call (1 = scored as downregulated) (binary); higher = compound decreases kinase abundance
# Conditions in all cases: K562, 2-18 h
# CDK7 = CDK7 (UniProt P50613)
# CDK9 = CDK9 (UniProt P50750)
# CHEK2 = CHEK2 (UniProt O96017)
# CSF1R = CSF1R (UniProt P07333)
# CSK = CSK (UniProt P41240)
# CSNK1D = CSNK1D (UniProt P48730)
# DDR1 = DDR1 (UniProt Q08345)
# DYRK1B = DYRK1B (UniProt Q9Y463)
# DYRK2 = DYRK2 (UniProt Q92630)
# CSNK1A1 = CSNK1A1 (UniProt P48729)
smiles,measurement,setting,value
CCN(CC)CCNC(=O)c1c(C)[nH]c(/C=C2\C(=O)Nc3ccc(F)cc32)c1C [Sunitinib],kinase-Nluc reporter destabilization hit call,CDK7; 2.5 µM,inactive: 0
same,kinase-Nluc reporter destabilization hit call,CDK9; 2.5 µM,inactive: 0
same,kinase-Nluc reporter destabilization hit call,CHEK2; 2.5 µM,inactive: 0
same,kinase-Nluc reporter destabilization hit call,CSF1R; 2.5 µM,inactive: 0
same,kinase-Nluc reporter destabilization hit call,CSK; 2.5 µM,inactive: 0
same,kinase-Nluc reporter destabilization hit call,CSNK1D; 2.5 µM,inactive: 0
same,kinase-Nluc reporter destabilization hit call,DDR1; 2.5 µM,inactive: 0
same,kinase-Nluc reporter destabilization hit call,DYRK1B; 2.5 µM,inactive: 0
same,kinase-Nluc reporter destabilization hit call,DYRK2; 2.5 µM,inactive: 0
CC#CC(=O)N1CCC[C@H]1c1nc(-c2ccc(C(=O)Nc3ccccn3)cc2)c2c(N)nccn12 [Acalabrutinib],kinase-Nluc reporter destabilization hit call,CDK7; 10 µM,inactive: 0
same,kinase-Nluc reporter destabilization hit call,CDK9; 10 µM,inactive: 0
same,kinase-Nluc reporter destabilization hit call,CHEK2; 10 µM,inactive: 0
same,kinase-Nluc reporter destabilization hit call,CSF1R; 10 µM,inactive: 0
same,kinase-Nluc reporter destabilization hit call,CSK; 10 µM,inactive: 0
same,kinase-Nluc reporter destabilization hit call,CSNK1A1; 10 µM,inactive: 0
same,kinase-Nluc reporter destabilization hit call,CSNK1D; 10 µM,inactive: 0
same,kinase-Nluc reporter destabilization hit call,DDR1; 10 µM,inactive: 0
same,kinase-Nluc reporter destabilization hit call,DYRK1B; 10 µM,inactive: 0
same,kinase-Nluc reporter destabilization hit call,DYRK2; 10 µM,inactive: 0
CC1(C)C(=O)N([C@H]2CCc3c(O)cccc32)c2nc(Nc3cccc(CN4CCCC4)c3)ncc21,kinase-Nluc reporter destabilization hit call,CDK7; 2.5 µM,inactive: 0
same,kinase-Nluc reporter destabilization hit call,CDK9; 2.5 µM,inactive: 0
same,kinase-Nluc reporter destabilization hit call,CHEK2; 2.5 µM,inactive: 0
same,kinase-Nluc reporter destabilization hit call,CSK; 2.5 µM,inactive: 0
same,kinase-Nluc reporter destabilization hit call,CSNK1A1; 2.5 µM,inactive: 0
same,kinase-Nluc reporter destabilization hit call,CSNK1D; 2.5 µM,inactive: 0
same,kinase-Nluc reporter destabilization hit call,DDR1; 2.5 µM,inactive: 0
same,kinase-Nluc reporter destabilization hit call,DYRK1B; 2.5 µM,inactive: 0
same,kinase-Nluc reporter destabilization hit call,DYRK2; 2.5 µM,inactive: 0
CNC(=O)c1cc(Oc2ccc(NC(=O)Nc3ccc(Cl)c(C(F)(F)F)c3)cc2)ccn1 [Sorafenib],kinase-Nluc reporter destabilization hit call,CDK7; 2.5 µM,inactive: 0
same,kinase-Nluc reporter destabilization hit call,CDK9; 2.5 µM,inactive: 0
same,kinase-Nluc reporter destabilization hit call,CHEK2; 2.5 µM,inactive: 0
same,kinase-Nluc reporter destabilization hit call,CSK; 2.5 µM,inactive: 0
same,kinase-Nluc reporter destabilization hit call,CSNK1A1; 2.5 µM,inactive: 0
same,kinase-Nluc reporter destabilization hit call,CSNK1D; 2.5 µM,inactive: 0
same,kinase-Nluc reporter destabilization hit call,DDR1; 2.5 µM,inactive: 0
same,kinase-Nluc reporter destabilization hit call,DYRK1B; 2.5 µM,inactive: 0
same,kinase-Nluc reporter destabilization hit call,DYRK2; 2.5 µM,inactive: 0
CC(=O)c1c(C)c2cnc(Nc3ccc(N4CCN(C(=O)CCCCCC(=O)N[C@H](C(=O)N5C[C@H](O)C[C@H]5C(=O)NCc5ccc(-c6scnc6C)cc5)C(C)(C)C)CC4)cn3)nc2n(C2CCCC2)c1=O,kinase-Nluc reporter destabilization hit call,CDK7; 2.5 µM,inactive: 0
same,kinase-Nluc reporter destabilization hit call,CDK9; 2.5 µM,inactive: 0
same,kinase-Nluc reporter destabilization hit call,CSK; 2.5 µM,inactive: 0
same,kinase-Nluc reporter destabilization hit call,CSNK1A1; 2.5 µM,inactive: 0
same,kinase-Nluc reporter destabilization hit call,CSNK1D; 2.5 µM,inactive: 0
same,kinase-Nluc reporter destabilization hit call,DYRK1B; 2.5 µM,inactive: 0
same,kinase-Nluc reporter destabilization hit call,DYRK2; 2.5 µM,inactive: 0
COc1cc(N2CCC(N3CCN(C)CC3)CC2)ccc1Nc1ncc(Cl)c(Nc2ccccc2S(=O)(=O)C(C)C)n1,kinase-Nluc reporter destabilization hit call,CDK7; 2.5 µM,inactive: 0
same,kinase-Nluc reporter destabilization hit call,CDK9; 2.5 µM,inactive: 0
same,kinase-Nluc reporter destabilization hit call,CHEK2; 2.5 µM,inactive: 0
same,kinase-Nluc reporter destabilization hit call,CSF1R; 2.5 µM,inactive: 0
same,kinase-Nluc reporter destabilization hit call,CSK; 2.5 µM,inactive: 0
same,kinase-Nluc reporter destabilization hit call,CSNK1A1; 2.5 µM,inactive: 0
same,kinase-Nluc reporter destabilization hit call,CSNK1D; 2.5 µM,inactive: 0
same,kinase-Nluc reporter destabilization hit call,DDR1; 2.5 µM,inactive: 0
same,kinase-Nluc reporter destabilization hit call,DYRK1B; 2.5 µM,inactive: 0
same,kinase-Nluc reporter destabilization hit call,DYRK2; 2.5 µM,inactive: 0
COc1ccc(-c2c[nH]c3nccc(-c4ccsc4)c23)c(OC)c1,kinase-Nluc reporter destabilization hit call,CDK7; 10 µM,inactive: 0
same,kinase-Nluc reporter destabilization hit call,CDK9; 10 µM,inactive: 0
same,kinase-Nluc reporter destabilization hit call,CHEK2; 10 µM,inactive: 0
same,kinase-Nluc reporter destabilization hit call,CSK; 10 µM,inactive: 0
same,kinase-Nluc reporter destabilization hit call,CSNK1A1; 10 µM,inactive: 0
same,kinase-Nluc reporter destabilization hit call,CSNK1D; 10 µM,inactive: 0
same,kinase-Nluc reporter destabilization hit call,DDR1; 10 µM,inactive: 0
same,kinase-Nluc reporter destabilization hit call,DYRK1B; 10 µM,inactive: 0
same,kinase-Nluc reporter destabilization hit call,DYRK2; 10 µM,inactive: 0
Cc1[nH]c(/C=C2\C(=O)Nc3ccc(F)cc32)c(C)c1C(=O)NC[C@H](O)CN1CCOCC1,kinase-Nluc reporter destabilization hit call,CDK7; 2.5 µM,inactive: 0
same,kinase-Nluc reporter destabilization hit call,CDK9; 2.5 µM,inactive: 0
same,kinase-Nluc reporter destabilization hit call,CHEK2; 2.5 µM,inactive: 0
same,kinase-Nluc reporter destabilization hit call,CSK; 2.5 µM,inactive: 0
same,kinase-Nluc reporter destabilization hit call,CSNK1A1; 2.5 µM,inactive: 0
same,kinase-Nluc reporter destabilization hit call,CSNK1D; 2.5 µM,inactive: 0
same,kinase-Nluc reporter destabilization hit call,DDR1; 2.5 µM,inactive: 0
same,kinase-Nluc reporter destabilization hit call,DYRK1B; 2.5 µM,inactive: 0
same,kinase-Nluc reporter destabilization hit call,DYRK2; 2.5 µM,inactive: 0
COc1cc2/c(=N/c3ccc(Br)cc3F)nc[nH]c2cc1OCC1CCN(C)CC1 [Vandetanib],kinase-Nluc reporter destabilization hit call,CDK7; 2.5 µM,inactive: 0
same,kinase-Nluc reporter destabilization hit call,CHEK2; 2.5 µM,inactive: 0
same,kinase-Nluc reporter destabilization hit call,CSK; 2.5 µM,inactive: 0
same,kinase-Nluc reporter destabilization hit call,CSNK1A1; 2.5 µM,inactive: 0
same,kinase-Nluc reporter destabilization hit call,CSNK1D; 2.5 µM,inactive: 0
same,kinase-Nluc reporter destabilization hit call,DDR1; 2.5 µM,inactive: 0
same,kinase-Nluc reporter destabilization hit call,DYRK1B; 2.5 µM,inactive: 0
same,kinase-Nluc reporter destabilization hit call,DYRK2; 2.5 µM,inactive: 0
Cc1nc(Nc2ncc(C(=O)Nc3c(C)cccc3Cl)s2)cc(N2CCN(CCO)CC2)n1 [Dasatinib],kinase-Nluc reporter destabilization hit call,CDK7; 2.5 µM,inactive: 0
same,kinase-Nluc reporter destabilization hit call,CDK9; 2.5 µM,inactive: 0
same,kinase-Nluc reporter destabilization hit call,CHEK2; 2.5 µM,inactive: 0
same,kinase-Nluc reporter destabilization hit call,CSK; 2.5 µM,inactive: 0
same,kinase-Nluc reporter destabilization hit call,CSNK1A1; 2.5 µM,inactive: 0
same,kinase-Nluc reporter destabilization hit call,CSNK1D; 2.5 µM,inactive: 0
same,kinase-Nluc reporter destabilization hit call,DDR1; 2.5 µM,active: 1
same,kinase-Nluc reporter destabilization hit call,DYRK1B; 2.5 µM,inactive: 0
same,kinase-Nluc reporter destabilization hit call,DYRK2; 2.5 µM,inactive: 0
Cc1ccc(Nc2nccc(N(C)c3ccc4c(C)n(C)nc4c3)n2)cc1S(N)(=O)=O [Pazopanib],kinase-Nluc reporter destabilization hit call,CDK7; 10 µM,inactive: 0
same,kinase-Nluc reporter destabilization hit call,CDK9; 10 µM,inactive: 0
same,kinase-Nluc reporter destabilization hit call,CHEK2; 10 µM,inactive: 0
same,kinase-Nluc reporter destabilization hit call,CSK; 10 µM,inactive: 0
same,kinase-Nluc reporter destabilization hit call,CSNK1A1; 10 µM,inactive: 0
same,kinase-Nluc reporter destabilization hit call,CSNK1D; 10 µM,inactive: 0
same,kinase-Nluc reporter destabilization hit call,DDR1; 10 µM,inactive: 0
same,kinase-Nluc reporter destabilization hit call,DYRK1B; 10 µM,inactive: 0
same,kinase-Nluc reporter destabilization hit call,DYRK2; 10 µM,inactive: 0
C=CC(=O)N(C)CCOc1c(N)ncnc1-c1cc(F)cc(NC(=O)c2ccc(C3CC3)cc2F)c1C [Remibrutinib],kinase-Nluc reporter destabilization hit call,CDK7; 10 µM,inactive: 0
same,kinase-Nluc reporter destabilization hit call,CDK9; 10 µM,inactive: 0
same,kinase-Nluc reporter destabilization hit call,CHEK2; 10 µM,inactive: 0
same,kinase-Nluc reporter destabilization hit call,CSF1R; 10 µM,inactive: 0
same,kinase-Nluc reporter destabilization hit call,CSK; 10 µM,inactive: 0
same,kinase-Nluc reporter destabilization hit call,CSNK1A1; 10 µM,inactive: 0
same,kinase-Nluc reporter destabilization hit call,CSNK1D; 10 µM,inactive: 0
same,kinase-Nluc reporter destabilization hit call,DDR1; 10 µM,inactive: 0
same,kinase-Nluc reporter destabilization hit call,DYRK1B; 10 µM,inactive: 0
same,kinase-Nluc reporter destabilization hit call,DYRK2; 10 µM,inactive: 0
CN1CCN(c2ccc3nc(-c4c(N)c5c(F)cccc5[nH]c4=O)[nH]c3c2)CC1 [Dovitinib (lactate)],kinase-Nluc reporter destabilization hit call,CDK7; 2.5 µM,inactive: 0
same,kinase-Nluc reporter destabilization hit call,CDK9; 2.5 µM,inactive: 0
same,kinase-Nluc reporter destabilization hit call,CHEK2; 2.5 µM,inactive: 0
same,kinase-Nluc reporter destabilization hit call,CSK; 2.5 µM,inactive: 0
same,kinase-Nluc reporter destabilization hit call,CSNK1A1; 2.5 µM,inactive: 0
same,kinase-Nluc reporter destabilization hit call,CSNK1D; 2.5 µM,inactive: 0
same,kinase-Nluc reporter destabilization hit call,DDR1; 2.5 µM,inactive: 0
same,kinase-Nluc reporter destabilization hit call,DYRK1B; 2.5 µM,inactive: 0
same,kinase-Nluc reporter destabilization hit call,DYRK2; 2.5 µM,inactive: 0
NC(=O)c1c(OCc2c(F)cc(Br)cc2F)nsc1NC(=O)NCCCCN1CCCC1,kinase-Nluc reporter destabilization hit call,CDK7; 2.5 µM,inactive: 0
same,kinase-Nluc reporter destabilization hit call,CDK9; 2.5 µM,inactive: 0
same,kinase-Nluc reporter destabilization hit call,CHEK2; 2.5 µM,inactive: 0
same,kinase-Nluc reporter destabilization hit call,CSF1R; 2.5 µM,inactive: 0
same,kinase-Nluc reporter destabilization hit call,CSK; 2.5 µM,inactive: 0
same,kinase-Nluc reporter destabilization hit call,CSNK1A1; 2.5 µM,inactive: 0
same,kinase-Nluc reporter destabilization hit call,CSNK1D; 2.5 µM,inactive: 0
same,kinase-Nluc reporter destabilization hit call,DDR1; 2.5 µM,inactive: 0
same,kinase-Nluc reporter destabilization hit call,DYRK1B; 2.5 µM,inactive: 0
same,kinase-Nluc reporter destabilization hit call,DYRK2; 2.5 µM,inactive: 0
O=C(NCCCNc1nc(Nc2cccc(CN3CCOCC3)c2)ncc1C1CC1)C1CCC1,kinase-Nluc reporter destabilization hit call,CDK7; 10 µM,inactive: 0
same,kinase-Nluc reporter destabilization hit call,CDK9; 10 µM,inactive: 0
same,kinase-Nluc reporter destabilization hit call,CHEK2; 10 µM,inactive: 0
same,kinase-Nluc reporter destabilization hit call,CSK; 10 µM,inactive: 0
same,kinase-Nluc reporter destabilization hit call,CSNK1A1; 10 µM,inactive: 0
same,kinase-Nluc reporter destabilization hit call,CSNK1D; 10 µM,inactive: 0
same,kinase-Nluc reporter destabilization hit call,DDR1; 10 µM,inactive: 0
same,kinase-Nluc reporter destabilization hit call,DYRK1B; 10 µM,inactive: 0
same,kinase-Nluc reporter destabilization hit call,DYRK2; 10 µM,inactive: 0
CCOc1nc(NC(=O)Cc2cc(OC)ccc2OC)cc(N)c1C#N [JNK Inhibitor VIII],kinase-Nluc reporter destabilization hit call,CDK7; 10 µM,inactive: 0
same,kinase-Nluc reporter destabilization hit call,CDK9; 10 µM,inactive: 0
same,kinase-Nluc reporter destabilization hit call,CHEK2; 10 µM,inactive: 0
same,kinase-Nluc reporter destabilization hit call,CSF1R; 10 µM,inactive: 0
same,kinase-Nluc reporter destabilization hit call,CSK; 10 µM,inactive: 0
same,kinase-Nluc reporter destabilization hit call,CSNK1D; 10 µM,inactive: 0
same,kinase-Nluc reporter destabilization hit call,DDR1; 10 µM,inactive: 0
same,kinase-Nluc reporter destabilization hit call,DYRK1B; 10 µM,inactive: 0
same,kinase-Nluc reporter destabilization hit call,DYRK2; 10 µM,inactive: 0
CN1CCN(c2ccc3nc(-c4c(N)c5c(F)cccc5[nH]c4=O)[nH]c3c2)CC1 [Dovitinib],kinase-Nluc reporter destabilization hit call,CDK7; 2.5 µM,inactive: 0
same,kinase-Nluc reporter destabilization hit call,CDK9; 2.5 µM,inactive: 0
same,kinase-Nluc reporter destabilization hit call,CHEK2; 2.5 µM,inactive: 0
same,kinase-Nluc reporter destabilization hit call,CSK; 2.5 µM,inactive: 0
same,kinase-Nluc reporter destabilization hit call,CSNK1A1; 2.5 µM,inactive: 0
same,kinase-Nluc reporter destabilization hit call,CSNK1D; 2.5 µM,inactive: 0
same,kinase-Nluc reporter destabilization hit call,DDR1; 2.5 µM,inactive: 0
same,kinase-Nluc reporter destabilization hit call,DYRK1B; 2.5 µM,inactive: 0
same,kinase-Nluc reporter destabilization hit call,DYRK2; 2.5 µM,inactive: 0
